# Results published in PubChem BioAssay AID624297 (National Center for Advancing Translational Sciences (NCATS), 2012).
# The campaign covered roughly 340,000 compounds. About 6,200 (1.8%) were called active. This list was built around the results that the source calls inconclusive (neither active nor inactive); the mix of calls is not that of the screen. The call rests on the fitted dose curve; in most records, active means well fitted activation curve with a large enough effect; inconclusive means small, poorly fitted or top-dose-only effect; inactive means no such curve, though single readings can be large or run the other way. Where the call is inconclusive, the potency comes from a doubtful curve fit.
# Assay: A quantitative high throughput screen for small molecules that induce DNA re-replication in SW480 colon adenocarcinoma cells. Further: nearly all actives have a fitted effect of over 55% in size. On re-replication activation: % of control where 0% means no effect.
# Details: Hoechst DNA content imaging, 48 h; re-replication activation: at 46.1 µM (top of the series) unless noted
# Method in brief: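 DNA re-replication was detected as more nuclei of elevated Hoechst intensity after 48 hr exposure to compound (23 nL pinned per well of 250 cells).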
# Potency means the concentration at half of the fitted maximal effect.
Compound,Potency,re-replication activation
CCOc1cc(Br)ccc1S(=O)(=O)N1CC(C)OC(C)C1 (centres undefined),"inconclusive: 20.6 µM [activator, partial curve, poor fit]",–
CC1(C)Cc2c(sc(NC(=O)COc3ccc(Cl)cc3)c2C(N)=O)C(C)(C)N1,inactive,–
CCC(C)NS(=O)(=O)c1ccc(NC(=O)C(Sc2ccccc2)c2ccccc2)cc1 (centres undefined),"inconclusive: 20.6 µM [activator, single point]",–
CC1CC2CCCC(O)=C2C(=O)O1 (centres undefined),inactive,–
COC(=O)c1ccc2c(=O)[nH]c(COC(=O)CCC(=O)c3ccc(Cl)cc3)nc2c1,"inconclusive: 23.1 µM [activator, partial curve, poor fit]",–
CCOC(=O)c1cnn(-c2nc(-c3ccc(C)cc3)cs2)c1C(F)(F)F,"inconclusive: 18.4 µM [activator, single point]",–
CC(C)N1CCC(N2CCN(Cc3ccc(-c4ccc(Cl)cc4)o3)CC2CCO)CC1 (centres undefined),"inconclusive: 29.1 µM [activator, single point]",–
CN(C)c1ccc(C#Cc2ccc3cc(CCO)oc(=O)c3c2)cc1,"inconclusive: 23.1 µM [activator, single point]",–
Cc1ccccc1OCCNC(=O)CSc1ccc(C(F)(F)F)cc1[N+](=O)[O-],inactive,–
CCOCc1nnc(NC(=O)C2CC(=O)N(C3CCCC3)C2)s1 (centres undefined),inactive,–
CCOc1ccc(NC(=O)COC(=O)C2CCC(=O)N2)c([N+](=O)[O-])c1 (centres undefined),"inconclusive: 0.0058 µM [activator, full curve, poor fit]",–
COC(=O)c1c(C(=O)OC)c(-c2cccc(F)c2)n2c1CS(=O)(=O)C2,inactive,–
COc1ccc(CNC(=O)/C=C/C(=O)O)cc1OC,inactive,–
C[C@@]12C(=O)N(CC3CC3)CC(=O)N1[C@H](/C=C/c1ccccc1)[C@@H]1C(=O)N(c3ccccc3)C(=O)[C@@H]12,"inconclusive: 20.6 µM [activator, single point]",–
CCOc1ccc(S(=O)(=O)NCCC(=O)NCc2ccc(OC)c(OC)c2)cc1,inactive,–
O=C(CN1C(=O)NC2(CCCCCCC2)C1=O)NCc1ccc(F)cc1,"inconclusive: 11.6 µM [activator, single point]",–
CC(=O)c1cccc(S(=O)(=O)NCCC(=O)NC2CCCCCC2)c1,"inconclusive: 2.59 µM [activator, single point]",–
Cc1cc(C)c(C(=O)c2ccc(C(=O)NC(C)(C)C)cc2)c(C)c1,inactive,–
CC1CC(C)CN(C(=O)COC(=O)c2cc(S(=O)(=O)N3CCOCC3)ccc2F)C1 (centres undefined),inactive,–
CCn1c2ccccc2c2cc(/C=N/NC(=O)c3cccc(C)c3)ccc21,"inconclusive: 25.9 µM [activator, single point]",–
O=C(CSc1ccc(Cl)cc1)Nc1ccc(NC(=O)c2ccco2)cc1,inactive,–
O=S(=O)(Cc1nnnn1-c1ccccc1)c1ccc(F)cc1,inactive,–
COc1ccc(C(=O)N/C(=C/c2ccc(Cl)cc2)C(=O)NCc2ccncc2)cc1,"inconclusive: 0.224 µM [activator, full curve, poor fit]",–

# Exported with tabs: part of the list above
Compound	Potency	re-replication activation
CCOc1ccc(NC(=O)COC(=O)C2CCC(=O)N2)c([N+](=O)[O-])c1 (centres undefined)	inconclusive: 0.0058 µM [activator, full curve, poor fit]	–
COC(=O)c1c(C(=O)OC)c(-c2cccc(F)c2)n2c1CS(=O)(=O)C2	inactive	–
COc1ccc(CNC(=O)/C=C/C(=O)O)cc1OC	inactive	–

# Next part:

Compound,Potency,re-replication activation
Cc1cccc(NC(=O)N2C3CCCC2CC(NC(=O)C(C)(C)C)C3)c1 (centres undefined),"inconclusive: 18.4 µM [activator, single point]",–
Cc1ccc(CNC(=O)COc2ccc(C(=O)c3ccc(F)cc3)cc2)cc1,"inconclusive: 18.4 µM [activator, single point]",–
Cc1ccc2c(c1)c1c(n2CC(O)Cn2c(C)nc3ccccc32)/C(=N\O)CCC1 (centres undefined),–,inactive: -1.51% [at 9.22 µM]
Cc1cccc(C2=NC(C(F)(F)F)(C(F)(F)F)c3c(n(-c4ccc(F)cc4)c(=O)[nH]c3=O)N2)c1,"inconclusive: 0.0164 µM [activator, full curve, poor fit]",–
CC(OC(=O)c1ccccc1NCCO)C(=O)NC1CCCCC1C (centres undefined),inactive,–
OCCCN=C1CCCc2c1[nH]c1ccc(Cl)cc21,inactive,–
CCOC(=O)C1=CNS(=O)(=O)NC1CCc1ccccc1 (centres undefined),"inconclusive: 23.1 µM [activator, single point]",–
Cc1cc(O)c(CN(C)C)c2c1C(=O)/C(=C/c1ccco1)O2,"inconclusive: 29.1 µM [activator, single point]",–
CN(C)c1ccnc2sc(C(=O)c3ccccc3)c(N)c12,"inconclusive: 23.1 µM [activator, single point]",–
CCCCC(=O)NC(c1ccc(Cl)cc1)c1ccc2cccnc2c1O (centres undefined),active: 1.03 µM,–
CN1C(=O)[C@H]2[C@@H](/C=C/c3ccccc3)N3C(=O)CN(Cc4ccccn4)C(=O)[C@@]3(C)[C@H]2C1=O,inactive,–
COc1ccc(CCNC(=O)c2cc3c(=O)n4ccccc4nc3n(C3CCCCC3)c2=N)cc1,active: 2.31 µM,–
Cc1cc(C(=O)N/N=C\C(Br)=C\c2ccccc2)c(C)o1,"inconclusive: 20.6 µM [activator, single point]",–
O=C(NCCc1ccccc1)C1CCCN1S(=O)(=O)c1ccc(F)cc1 (centres undefined),"inconclusive: 23.1 µM [activator, single point]",–
Cc1ccc(S(=O)(=O)NCCCNS(=O)(=O)c2ccccc2)cc1,inactive,–
CCN(CC)S(=O)(=O)c1cc(C(=O)Nc2cc(S(=O)(=O)N3CCOCC3)ccc2N2CCCC2)ccc1F,inactive,–
CSc1ccc(/C=N/S(=O)(=O)c2ccccc2)cc1,inactive,–
Cc1cc(NC(=O)/C=C/c2ccc(F)cc2)n(-c2nc3ccccc3[nH]2)n1,inactive,–
O=C(Nc1cccc(NC(=O)c2cccs2)c1)c1cccnc1,"inconclusive: 0.092 µM [activator, partial curve, poor fit]",–
CCCCc1ccccc1NC(=S)NC1CCCC1,"inconclusive: 18.4 µM [activator, single point]",–
COCCn1c(=O)[nH]c2cc(C(=O)NCCN3CCN(c4ccccc4)CC3)ccc2c1=O,inactive,–
O=C(CN(C(=O)c1ccc(Cl)cc1)C1CCCCC1)Nc1ccc(Cl)c([N+](=O)[O-])c1,"inconclusive: 20.6 µM [activator, partial curve, poor fit]",–
CCOC(=O)Cn1nnnc1CN(Cc1ccccc1)Cc1cc2cc(CC)ccc2[nH]c1=O,"inconclusive: 29.1 µM [activator, single point]",–

# One compound at a time, from the list above. Order of values: Potency | re-replication activation
# OCCCN=C1CCCc2c1[nH]c1ccc(Cl)cc21 is listed as inactive | –
# CCCCC(=O)NC(c1ccc(Cl)cc1)c1ccc2cccnc2c1O (centres undefined) is listed as active: 1.03 µM | –
# O=C(Nc1cccc(NC(=O)c2cccs2)c1)c1cccnc1 is listed as inconclusive: 0.092 µM [activator, partial curve, poor fit] | –

# (cont.)

Compound,Potency,re-replication activation
COc1cc(NC(=O)CN2C(=O)NC(CC(C)C)C2=O)cc(OC)c1OC (centres undefined),inactive,–
COc1ccc(-n2c(NCCN(C)C)nc3sc4c(c3c2=O)CCCCC4)cc1,"inconclusive: 29.1 µM [activator, single point]",–
Cc1cccc(N2CCN(C(=O)C3CCCN(S(=O)(=O)c4cnc[nH]4)C3)CC2C)c1 (centres undefined),inactive,–
N=c1c2c(ncn1Cc1ccco1)Oc1ccc3ccccc3c1C2c1ccccc1 (centres undefined),"inconclusive: 16.4 µM [activator, single point]",–
Cc1cccc(C(=O)N2CCC(=O)N(C(COCc3ccc(Cl)cc3)Cc3ccccc3)CC2)c1 (centres undefined),"inconclusive: 2.91 µM [activator, full curve, poor fit]",–
COc1cc(/C=C2\SC(=N)N(c3ccc(F)cc3)C2=O)ccc1O,"inconclusive: 29.1 µM [activator, single point]",–
COCCc1ncc(CN2CCCC(C(=O)Nc3cccc(-c4cccc(C)c4)c3)C2)cn1 (centres undefined),"inconclusive: 3.66 µM [activator, partial curve, poor fit]",–
O=C(N/N=C/C1CC2C=CC1C2)c1ccccc1O (centres undefined),"inconclusive: 29.1 µM [activator, single point]",–
O=C1C=CCC(/C=C/c2ccccc2)O1 (centres undefined),active: 16.4 µM,–
CC1CCCN(CCCOc2ccc(Br)cc2Cl)C1 (centres undefined),"inconclusive: 18.4 µM [activator, single point]",–
CC1CN(c2nc3c(c(=O)n(Cc4ccc(Cl)c(Cl)c4)c(=O)n3C)n2C)CC(C)O1 (centres undefined),"inconclusive: 29.1 µM [activator, single point]",–
O=C(CN1C(=O)/C(=C/c2cccc(Cl)c2)SC1=S)NC1C=CS(=O)(=O)C1 (centres undefined),"inconclusive: 31.6 µM [activator, single point]",–
CCc1ccc(-c2nc(CS(=O)CC(=O)NCCN3CCCCCC3)c(C)o2)cc1 (centres undefined),inactive,–
OC(COCC(F)(F)C(F)(F)C(F)(F)C(F)F)Cn1c2ccccc2c2ccccc21 (centres undefined),"inconclusive: 29.1 µM [activator, single point]",–
N#Cc1ccc(CSc2ccccn2)c(Cl)c1,"inconclusive: 29.1 µM [activator, single point]",–
Cn1c(N=Nc2ccccc2)nc2ccccc21,"inconclusive: 18.4 µM [activator, single point]",–
Clc1ccc(C(c2nnnn2C2CCCC2)N2CCSCC2)cc1 (centres undefined),inactive,–
Nc1cccc2nsnc12,inactive,–
CN(C)c1ccc(N/C=C/C(=O)c2ccccc2)cc1,"inconclusive: 35.5 µM [activator, single point]",–
Cc1ccc(-c2nc(SCC(=O)NCC3CCCO3)c(-c3ccccc3)[nH]2)cc1 (centres undefined),"inconclusive: 7.31 µM [activator, partial curve, poor fit]",–
CCN(C(=O)COC(=O)c1ccc(S(=O)(=O)N2CCCc3ccccc32)cc1)C1CCS(=O)(=O)C1 (centres undefined),"inconclusive: 29.1 µM [activator, single point]",–
O=C(c1ccc([N+](=O)[O-])cc1)c1cc2ccc(O)cc2oc1=O,"inconclusive: 29.1 µM [activator, single point]",–
COc1ccc(-c2nc(C(=O)NCC3CCCO3)cc3c2[nH]c2ccccc23)cc1 (centres undefined),"inconclusive: 11.6 µM [activator, partial curve, poor fit]",–
